Experimental data: PubChem BioAssay AID1259291 (Sanger Institute, 2017)
The whole screen tested 794 reagents; this is an unselected part. 15 of them (1.9%) were called active. 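Calls rest on knock-down alone; drug synergy scores do not affect them; drugs added a day post-transfection, DMSO vehicle as comparison.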 A number with no mark means an inactive call. No viability above 1 is reported: the scale is capped. Not given: the amount of reagent, the time to read-out.

Aim: 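Find kinase and colorectal-cancer-mutated genes whose loss kills HT29 cells or aids anchor drugs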 (primary screen)
Cell system: HT29 human colorectal cancer cells
Reagent: siRNA pool against human genes
Challenge: anchor drugs added a day after transfection: BYL719 at 1 µM, cetuximab at 5 µg/ml or trametinib at 10 nM, or DMSO vehicle alone
Detection: 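Replicate-averaged viability relative to non-targeting pool, robust z-score based on control wells, plus per-drug synergy score for 1 µM BYL719, 5 µg/ml cetuximab and 10 nM trametinib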
Scale: robust z-score, knock-down alone and viability, knock-down alone: higher = more viable cells; synergy score with BYL719 and synergy score with cetuximab and synergy score with trametinib: higher = stronger synergistic killing with drug
Call rule: 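Essential when the robust z-score for knock-down without any drug is below -3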
Meaning of the calls: active = essential (knock-down alone); inactive = no change alone

gene knocked down | robust z-score, knock-down alone | viability, knock-down alone (fraction of control) | synergy score with BYL719 | synergy score with cetuximab | synergy score with trametinib
PDK4 (pyruvate dehydrogenase kinase 4) | 0.475 | 0.995 | 0.0495 | -0.00487 | 0.0222
MOK (MOK protein kinase) | -0.509 | 0.934 | -0.0678 | -0.0659 | -0.0214
CSNK1A1L (casein kinase 1 alpha 1 like) | 0.552 | 1 | 0.0313 | 0.148 | -0.21
TAB1 (TGF-beta activated kinase 1 (MAP3K7) binding protein 1) | -1.94 | 0.846 | -0.178 | -0.155 | -0.0299
PASK (PAS domain containing serine/threonine kinase) | 0.552 | 1 | -0.00423 | 0.071 | 0.00192
NUCKS1 | 0.552 | 1 | 0.0513 | 0 | -0.0441
SNRK (SNF related kinase) | 0.552 | 1 | -0.148 | 0 | 0.0412
ABL1 (ABL proto-oncogene 1, non-receptor tyrosine kinase) | 0.552 | 1 | 0.0192 | 0.0452 | -0.00451
CUL1 (cullin 1) | -1.38 | 0.88 | -0.0248 | -0.12 | -0.126
PIK3CA | -0.921 | 0.909 | -0.128 | -0.0403 | 0.0579
SIK1 (salt inducible kinase 1) | 0.552 | 1 | -0.103 | 0 | 0.0319
VRK1 (VRK serine/threonine kinase 1) | -0.672 | 0.924 | -0.125 | -0.0669 | -0.0486
LATS2 (large tumor suppressor kinase 2) | 0.552 | 1 | -0.11 | 0 | -0.0608
IP6K2 (inositol hexakisphosphate kinase 2) | 0.552 | 1 | -0.0451 | 0.0257 | 0.104
PIM1 (Pim-1 proto-oncogene, serine/threonine kinase) | 0.547 | 1 | 0.175 | 0.0281 | 0.158
ITPK1 (inositol-tetrakisphosphate 1-kinase) | 0.552 | 1 | 0.0407 | 0.0772 | -0.0205
NR4A2 (nuclear receptor subfamily 4 group A member 2) | 0.132 | 0.974 | 0.111 | 0.179 | 0.0295
UCK1 (uridine-cytidine kinase 1) | 0.552 | 1 | -0.0718 | 0 | 0.0278
ITSN1 (intersectin 1) | 0.552 | 1 | -0.0482 | 0 | 0.000417
BRD3 (bromodomain containing 3) | 0.552 | 1 | -0.116 | 0.0084 | -0.0395
PRKACB (protein kinase cAMP-activated catalytic subunit beta) | -0.0664 | 0.962 | -0.0483 | 0.0155 | -0.0822
FLT1 (fms related receptor tyrosine kinase 1) | -1.07 | 0.9 | -0.219 | -0.0623 | -0.197
PEAK1 (pseudopodium enriched atypical kinase 1) | 0.552 | 1 | 0.0241 | 0.0573 | 0.086
MAP3K21 (mitogen-activated protein kinase kinase kinase 21) | 0.552 | 1 | -0.0236 | 0 | -0.0285
SOX9 (SRY-box transcription factor 9) | 0.552 | 1 | 0.0518 | 0.194 | 0.0363
FGFR1 (fibroblast growth factor receptor 1) | 0.374 | 0.989 | 0.00229 | 0.0156 | 0.0375
PAPSS1 (3'-phosphoadenosine 5'-phosphosulfate synthase 1) | 0.552 | 1 | 0.0666 | 0.126 | 0.0845
RNASEL (ribonuclease L) | 0.552 | 1 | 0.033 | 0.0551 | -0.0555
NUAK2 (NUAK family kinase 2) | 0.552 | 1 | 0.123 | 0 | 0.0412
PRP4K (pre-mRNA processing factor kinase PRP4K) | -0.401 | 0.941 | 0.0323 | 0.0613 | 0.0154
MAP2K1 (mitogen-activated protein kinase kinase 1) | 0.552 | 1 | 0.0473 | 0.00799 | 0.0564
PNKP (polynucleotide kinase 3'-phosphatase) | -0.393 | 0.941 | -0.123 | 0.0655 | 0.0935
HUS1 (HUS1 checkpoint clamp component) | 0.551 | 1 | -0.0393 | -0.000165 | 0.0598
NF1 (neurofibromin 1) | 0.271 | 0.983 | 0.00492 | -0.0175 | 0.00474
ARID1A (AT-rich interaction domain 1A) | -0.472 | 0.936 | 0.0193 | 0.111 | -0.103
PKMYT1 (protein kinase, membrane associated tyrosine/threonine 1) | 0.552 | 1 | 0.0209 | 0.106 | -0.00309
AMER1 (APC membrane recruitment protein 1) | 0.552 | 1 | 0.0233 | 0.0568 | 0.0897
GALK1 (galactokinase 1) | 0.552 | 1 | 0.126 | 0.253 | -0.0665
MAP2K6 (mitogen-activated protein kinase kinase 6) | -2.78 | 0.794 | -0.285 | -0.187 | -0.257
MAPK8 (mitogen-activated protein kinase 8) | -1.17 | 0.893 | -0.111 | -0.0634 | -0.0446
UCKL1 (uridine-cytidine kinase 1 like 1) | -0.232 | 0.951 | -0.0613 | -0.0487 | -0.01
RUNX1 (RUNX family transcription factor 1) | 0.552 | 1 | 0.00895 | 0 | 0.079
BCOR (BCL6 corepressor) | 0.376 | 0.989 | 0.0122 | 0.00384 | 0.122
CDK5R1 (cyclin dependent kinase 5 regulatory subunit 1) | 0.552 | 1 | -0.0532 | 0.173 | 0.0252
PANK2 (pantothenate kinase 2) | 0.552 | 1 | -0.158 | 0.00162 | 0.0864
CAMKK2 (calcium/calmodulin dependent protein kinase kinase 2) | 0.552 | 1 | -0.158 | 0.0396 | -0.0316
PXK (PX domain containing serine/threonine kinase like) | 0.155 | 0.975 | -0.0869 | -0.0247 | -0.117
MASTL (microtubule associated serine/threonine kinase like) | 0.552 | 1 | 0.0735 | 0.0555 | 0.0197
PLK1 (polo like kinase 1) | -3.58 (active) | 0.744 | 0.199 | 0.0674 | 0.0914
CTCF (CCCTC-binding factor) | -1.21 | 0.891 | -0.0492 | -0.039 | 0.00634

Active calls, among the entries above:
gene knocked down | robust z-score, knock-down alone | viability, knock-down alone (fraction of control) | synergy score with BYL719 | synergy score with cetuximab | synergy score with trametinib
PLK1 (polo like kinase 1) | -3.58 (active) | 0.744 | 0.199 | 0.0674 | 0.0914
